The text below walks through data of publication PMC4299599, “Quantification of cytosolic interactions identifies Ede1 oligomers as key organizers of endocytosis” (Molecular Systems Biology, 2014).

Results are given in words; binding and its absence hold for the method and conditions named. Some entries that bind do so weakly or less than the wild type.

Experiment [1] addresses T1, End3 (S. cerevisiae) (UniProt P39013).
T1 sequence: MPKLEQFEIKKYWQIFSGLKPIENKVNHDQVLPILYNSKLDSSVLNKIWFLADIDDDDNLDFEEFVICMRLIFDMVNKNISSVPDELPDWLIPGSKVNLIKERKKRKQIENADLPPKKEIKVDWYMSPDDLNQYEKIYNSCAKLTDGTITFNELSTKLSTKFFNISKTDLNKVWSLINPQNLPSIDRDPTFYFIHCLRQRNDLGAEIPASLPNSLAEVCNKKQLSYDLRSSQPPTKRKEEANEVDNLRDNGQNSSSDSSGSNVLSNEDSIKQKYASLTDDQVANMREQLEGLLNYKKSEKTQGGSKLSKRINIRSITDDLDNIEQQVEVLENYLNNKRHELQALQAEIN
Nature of the experiment: condition: 1000 nM (only Kdeff-values < 1000 nM are shown); fluorescence cross-correlation spectroscopy (FCCS); in the cytoplasm of living yeast cells; first-named protein green (3myeGFP or 1myeGFP; eGFP for Don1), second red (3mCherry); self-interaction in diploid strains with one allele of each colour; apparent or effective KD (Kdeff) from single-cell measurements; only Kdeff values < 1000 nM are shown; values for self-interactions are upper limits.

Experiment [2] has as its target T2, Pan1 (S. cerevisiae, UniProt P32521 1-1480).
T2 construct: Pan1, S. cerevisiae; also called Pan1-1myeGFP; Pan1-3mCherry; source: chromosomally tagged at the endogenous locus, in the cytoplasm of living S. cerevisiae cells
T2 sequence (looked up): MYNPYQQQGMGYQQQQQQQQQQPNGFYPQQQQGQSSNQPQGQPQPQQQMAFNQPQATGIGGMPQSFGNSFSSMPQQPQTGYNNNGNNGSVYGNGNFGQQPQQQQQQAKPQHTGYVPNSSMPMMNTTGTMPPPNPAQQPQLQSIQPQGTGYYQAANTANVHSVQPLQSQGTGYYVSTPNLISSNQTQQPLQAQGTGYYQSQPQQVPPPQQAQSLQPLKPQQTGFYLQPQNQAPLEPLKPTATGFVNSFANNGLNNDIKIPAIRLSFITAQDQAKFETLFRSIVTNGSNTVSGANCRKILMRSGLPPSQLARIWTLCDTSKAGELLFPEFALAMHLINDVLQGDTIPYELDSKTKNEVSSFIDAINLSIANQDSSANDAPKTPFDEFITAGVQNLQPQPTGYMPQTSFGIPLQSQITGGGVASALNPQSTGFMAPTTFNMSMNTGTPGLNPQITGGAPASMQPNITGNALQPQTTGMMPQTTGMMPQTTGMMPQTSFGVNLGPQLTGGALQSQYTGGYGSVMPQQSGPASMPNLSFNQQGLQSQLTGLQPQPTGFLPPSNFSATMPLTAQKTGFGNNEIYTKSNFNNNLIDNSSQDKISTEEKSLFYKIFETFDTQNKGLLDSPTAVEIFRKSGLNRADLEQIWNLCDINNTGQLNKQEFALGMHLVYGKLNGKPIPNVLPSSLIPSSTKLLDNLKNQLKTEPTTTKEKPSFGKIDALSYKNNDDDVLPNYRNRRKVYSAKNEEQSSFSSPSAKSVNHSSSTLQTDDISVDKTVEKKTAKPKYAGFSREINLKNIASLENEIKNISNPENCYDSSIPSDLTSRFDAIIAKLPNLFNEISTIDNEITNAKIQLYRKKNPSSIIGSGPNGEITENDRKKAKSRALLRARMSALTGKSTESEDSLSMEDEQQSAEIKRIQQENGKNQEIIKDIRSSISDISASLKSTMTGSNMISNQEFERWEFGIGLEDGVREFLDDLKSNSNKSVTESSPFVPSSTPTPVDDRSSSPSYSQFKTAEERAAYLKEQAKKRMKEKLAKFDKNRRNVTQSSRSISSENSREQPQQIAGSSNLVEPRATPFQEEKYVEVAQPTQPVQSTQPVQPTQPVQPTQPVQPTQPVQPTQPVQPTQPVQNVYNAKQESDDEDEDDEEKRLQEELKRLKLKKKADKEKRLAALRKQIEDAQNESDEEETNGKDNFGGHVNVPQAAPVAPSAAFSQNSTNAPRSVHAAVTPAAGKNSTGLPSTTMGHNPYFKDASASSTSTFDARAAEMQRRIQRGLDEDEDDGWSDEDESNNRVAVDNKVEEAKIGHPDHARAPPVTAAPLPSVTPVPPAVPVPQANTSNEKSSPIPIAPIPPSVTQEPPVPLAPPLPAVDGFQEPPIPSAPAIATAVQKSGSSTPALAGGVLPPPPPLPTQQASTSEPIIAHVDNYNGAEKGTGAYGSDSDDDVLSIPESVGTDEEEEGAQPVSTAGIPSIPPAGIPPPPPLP
The experiment is described as above.

In experiment [3] the target is T1, End3 (S. cerevisiae). Nature of the experiment: fluorescence cross-correlation spectroscopy (FCCS); living yeast cells, observation volume in the cytoplasm; one protein tagged with (3)myeGFP/eGFP and the other with 3mCherry in the same strain; apparent (effective) KD; interactions up to ~1 μM detectable.
For experiment [4], the target named is T2, Pan1. Nature of the experiment: condition: detection range of FCCS: apparent KD up to ~1 μM; fluorescence cross-correlation spectroscopy (FCCS); self-interaction: living diploid yeast cells with one allele fused to (3)myeGFP and one to (3)mCherry, cytoplasm; apparent (effective) KD, to be taken as the upper limit since complexes of one colour are not seen.

B1: Scd5 (protein, UniProt P34758 1-872)
chain: MSFDWLNVPGLDLSSGDQAEKRPSNGLGPPSVSFDFGINTAAPHDSSFWDQGSRSHSDTTLSYRNNHSNTAADNATNVSSPQKDNPPNGEVRTLSGGDVYAESPEDMQVPLSLSQNQLTHEEIRTYLRWYHYICLRTHGKLVRLNDVFRFLTNFNLSQKVKDRIVEIFRSCKNALNIGQFFAVLRLVSRAIIYGILPLRRMILEKAPVPKPRPILSSENHEEVYEEVEDDDSSAKTGDQKVDFDSFASLLLTGKTTRKRVRRRIKNLNFKSKKVRFSEHITFQDPPNLNQESSNNSEARKQDPDAEDEDQDSNNDSPLDFTLPMDQLLKRLYKRRKNSGLVSSLPSEQQETEEEKKVLEDMKDSLSHFKQIQTVDSASLPISSVFLQNGNTLPTSNVNNTTVPQQLPLEPLKPTATGSANHLVREEYNQGLHPSNGAIQTGLQPLKPTATGSANYLMRSHMEQPQSIKPSSTPETVTNSGGLQPLKPTATGSANYLMKQHISPSVNNPVSSMFQAQFTNQSSSPQSTGPAFLNSPNITLPQSNQQQPYQEVNPTQAKIEPSNISPQHTYSNNVRINNGNIVSMPKVEITGAFPPQNTLPQHQQSHLLSPQNTIPQHQRSQLISPQNTFTQNQPILSPQHTYSNNQATMISPQNTYTNNQQQPQHLPPPPPPRAQQQQQGAIVPPQHMYSNVQKQNNLVPTQPSYTNSPSIQSPNFLSPQNAANSYFQSLLSSSPSPNPTPSNASTVNGNNASNGISSFQNTSAAMNNTQSHQTYIQQQQQQQTQQRIYGGQLSQMQQHPGQLHLNNSDIHSQPNKPNYGMLGQQVHQQQQQQQQQFPFTADVNRSNSSDILGNLQSLQQQVDALQIQYNRRP
With B1, the binding result with End3 (S. cerevisiae) [1] and with Pan1 [2] was “no binding” each time.

B2: Pan1 (protein, UniProt P32521 1-1480)
chain: T2 sequence (looked up)
B2: the results for the binding entry with End3 (S. cerevisiae) [3], with Pan1 [2] and with Pan1 [4] were “binds”, “no binding” and “no binding”, respectively.
